Measured values published in the supplement of paper PMC4604168 (melanoma cell lines).
The list shows a part of the results. Many values rest on one well or one pass, so single values are uncertain.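 Imaging used 1,536-well plates; nuclei positive for cleaved PARP by antibody were divided by total DNA-stained nuclei to yield the apoptosis fraction. Doses for screening kept most cells viable, and cell lines differ markedly in resting and induced cleaved-PARP levels.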

Key:
Assay in all cases: cleaved PARP positive nuclei fraction relative to DMSO control; melanoma cells; higher = more apoptosis
Conditions in all cases: library dose: low library concentration; 72 h
WM115 = test system: WM115
WM1716 = test system: WM1716
WM1745 = test system: WM1745
WM3526 = test system: WM3526
WM3619 = test system: WM3619
WM451Lu = test system: WM451Lu

Row | Compound | cleaved PARP positive nuclei fraction (WM115) [%] | cleaved PARP positive nuclei fraction (WM1716) [%] | cleaved PARP positive nuclei fraction (WM1745) [%] | cleaved PARP positive nuclei fraction (WM3526) [%] | cleaved PARP positive nuclei fraction (WM3619) [%] | cleaved PARP positive nuclei fraction (WM451Lu) [%]
1 | O=C(Nc1ccccc1)c1cc([N+](=O)[O-])ccc1Cl + COc1ccc(-c2ccc3c(N4CCOCC4)nc(N4C[C@@H](C)O[C@@H](C)C4)nc3n2)cc1CO [KU0063794] (first compound 2 µM, partner dose 0.02 µM) | 92 | 90.2 | 119 | 196 | 101 | 60.5
2 | COc1cc2c(Oc3ccc4[nH]c(C)cc4c3F)ncnc2cc1OCCCN1CCCC1 [cediranib] + N#Cc1c(O)c2c(-c3ccc(-c4ccccc4O)cc3)csc2[nH]c1=O [A769662] (first compound 0.4 µM, partner dose 2 µM) | 97.3 | 65.1 | 94.9 | 70.9 | 76.9 | 85
3 | COc1cc2c(Oc3ccc4[nH]c(C)cc4c3F)ncnc2cc1OCCCN1CCCC1 [cediranib] + COc1cc(N2CCC(N3CCN(C)CC3)CC2)ccc1Nc1ncc(Cl)c(Nc2ccccc2S(=O)(=O)C(C)C)n1 [NVP-TAE684] (first compound 0.4 µM, partner dose 0.08 µM) | 139 | 89.7 | 139 | 151 | 93.8 | 60.1
4 | COc1ccc(COc2ccc(Cc3cnc(N)nc3N)cc2OC)cc1 + O=S(=O)(c1ccccc1)N(CC(F)(F)F)c1ccc(C(O)(C(F)(F)F)C(F)(F)F)cc1 [T0901317] (first compound 1 µM, partner dose 1.4 µM) | 61.2 | 54.1 | 111 | 172 | 88.6 | 69.3
5 | O=C(O)c1ccc(-c2c[nH]c3ncc(-c4ccccc4)cc23)cc1C1CCCC1 + CC(C)CCN1c2nc(Nc3cc(F)c(O)c(F)c3)ncc2N(C)C(=O)C1C [BID1870] (first compound 0.16 µM, partner dose 0.2 µM) | 199 | 99.3 | 103 | 143 | 81.5 | 38.5
6 | COc1ccc(-c2ccc3c(N4CCOCC4)nc(N4C[C@@H](C)O[C@@H](C)C4)nc3n2)cc1CO + CCCCCCCCCCCC1=C(O)C(=O)C=C(O)C1=O [Embelin] (first compound 0.02 µM, partner dose 1.2 µM) | 129 | 98.4 | 104 | 63.8 | 82.9 | 161
7 | CN(C)S(=O)(=O)c1ccc2c(c1)/C(=C/c1cc3c([nH]1)CCCC3)C(=O)N2 + COC(=O)c1sccc1S(=O)(=O)Nc1ccc(Nc2ccccc2)cc1OC [GSK0660] (first compound 0.4 µM, partner dose 1 µM) | 265 | 81.8 | 349 | 68.8 | 72 | 55.2
8 | CN(NC(=O)CC(=O)NN(C)C(=S)c1ccccc1)C(=S)c1ccccc1 + COc1cc(N2CCC(N3CCN(C)CC3)CC2)ccc1Nc1ncc(Cl)c(Nc2ccccc2S(=O)(=O)C(C)C)n1 [NVP-TAE684] (first compound 0.006 µM, partner dose 0.08 µM) | 177 | 135 | 194 | 66.8 | 128 | 146
9 | Cc1cc([N+](=O)[O-])ccc1NS(=O)(=O)c1cc(Cl)ccc1Cl + CCCCCCCCCCCC1=C(O)C(=O)C=C(O)C1=O [Embelin] (first compound 1 µM, partner dose 1.2 µM) | 50.1 | 119 | 100 | 69.6 | 82.3 | 116
10 | COc1cc2c(Oc3ccc4[nH]c(C)cc4c3F)ncnc2cc1OCCCN1CCCC1 [cediranib] + O=C(O)C(=O)Nc1sc2c(c1C(=O)O)CCNC2 [TCS401] (first compound 0.4 µM, partner dose 1.66667 µM) | 128 | 96.8 | 105 | 63.8 | 90.7 | 67.2
11 | CCc1ccc(CCOc2ccc(CC3SC(=O)NC3=O)cc2)nc1 (configuration not stated) [pioglitazone] + COc1ccc(-c2ccc3c(N4CCOCC4)nc(N4C[C@@H](C)O[C@@H](C)C4)nc3n2)cc1CO [KU0063794] (first compound 2 µM, partner dose 0.02 µM) | 86.6 | 28.6 | 108 | 58.1 | 59.1 | 118
12 | CCc1ccc(CCOc2ccc(CC3SC(=O)NC3=O)cc2)nc1 (configuration not stated) [pioglitazone] + COC(=O)c1sccc1S(=O)(=O)Nc1ccc(Nc2ccccc2)cc1OC [GSK0660] (first compound 2 µM, partner dose 1 µM) | 54.8 | 111 | 93.4 | 131 | 87.3 | 342
13 | Oc1cc(-c2nc(-c3ccccc3)[nH]c2-c2ccncc2)ccc1Cl + COc1cc(N2CCC(N3CCN(C)CC3)CC2)ccc1Nc1ncc(Cl)c(Nc2ccccc2S(=O)(=O)C(C)C)n1 [NVP-TAE684] (first compound 0.2 µM, partner dose 0.08 µM) | 302 | 64.6 | 158 | 221 | 99.7 | 117
14 | CCN(CC)CCCCNc1ncc2cc(-c3cc(OC)cc(OC)c3)c(NC(=O)NC(C)(C)C)nc2n1 + COc1cc2ncnc(Nc3ccc(Oc4ccccc4)cc3)c2cc1OC [SrcI1] (first compound 0.1 µM, partner dose 2 µM) | 62.7 | 72.4 | 226 | 67.6 | 111 | 100
15 | NCC(=O)Nc1ccc(-n2nc(C(F)(F)F)cc2-c2ccc3c(ccc4ccccc43)c2)cc1 + N#Cc1c(O)c2c(-c3ccc(-c4ccccc4O)cc3)csc2[nH]c1=O [A769662] (first compound 1 µM, partner dose 2 µM) | 71.4 | 76 | 99.7 | 115 | 120 | 104
16 | O=C(O)c1ccc(-c2c[nH]c3ncc(-c4ccccc4)cc23)cc1C1CCCC1 + O=C(O)C(=O)Nc1sc2c(c1C(=O)O)CCNC2 [TCS401] (first compound 0.16 µM, partner dose 1.66667 µM) | 94.1 | 66.3 | 105 | 143 | 94 | 84.4
17 | NCC(=O)Nc1ccc(-n2nc(C(F)(F)F)cc2-c2ccc3c(ccc4ccccc43)c2)cc1 + CCN(CC)CCCCNc1ncc2cc(-c3cc(OC)cc(OC)c3)c(NC(=O)NC(C)(C)C)nc2n1 [PD173074] (first compound 1 µM, partner dose 0.1 µM) | 157 | 185 | 126 | 125 | 74 | 1830
18 | COc1ccc2c(c1)CCC1C2CCC2(C)C(NCCCCCCN3C(=O)C=CC3=O)CCC12 (configuration not stated) + CCN(CC)CCCCNc1ncc2cc(-c3cc(OC)cc(OC)c3)c(NC(=O)NC(C)(C)C)nc2n1 [PD173074] (first compound 0.4 µM, partner dose 0.1 µM) | 71.6 | 63.3 | 121 | 73.6 | 83.2 | 60.4
19 | NCC(=O)Nc1ccc(-n2nc(C(F)(F)F)cc2-c2ccc3c(ccc4ccccc43)c2)cc1 + CC(C)CCN1c2nc(Nc3cc(F)c(O)c(F)c3)ncc2N(C)C(=O)C1C [BID1870] (first compound 1 µM, partner dose 0.2 µM) | 32.9 | 264 | 107 | 192 | 93.9 | 142
20 | CCc1ccc(CCOc2ccc(CC3SC(=O)NC3=O)cc2)nc1 (configuration not stated) [pioglitazone] + Oc1cc(-c2nc(-c3ccccc3)[nH]c2-c2ccncc2)ccc1Cl [L779450] (first compound 2 µM, partner dose 0.2 µM) | 126 | 75.9 | 116 | 81.5 | 75.3 | 78.4
21 | NCC(=O)Nc1ccc(-n2nc(C(F)(F)F)cc2-c2ccc3c(ccc4ccccc43)c2)cc1 + O=S(=O)(c1ccccc1)N(CC(F)(F)F)c1ccc(C(O)(C(F)(F)F)C(F)(F)F)cc1 [T0901317] (first compound 1 µM, partner dose 1.4 µM) | 157 | 51.3 | 1400 | 816 | 105 | 304
22 | O=C1NC(=O)/C(=C/c2ccc(-c3ccc(F)cc3O)o2)S1 + CC(C)CCN1c2nc(Nc3cc(F)c(O)c(F)c3)ncc2N(C)C(=O)C1C [BID1870] (first compound 1 µM, partner dose 0.2 µM) | 70.9 | 4.96 | 104 | 45.3 | 93 | 53.3
23 | N#Cc1c(O)c2c(-c3ccc(-c4ccccc4O)cc3)csc2[nH]c1=O + O=C1NC(=O)/C(=C/c2ccc(-c3ccc(F)cc3O)o2)S1 [AS252424] (first compound 2 µM, partner dose 1 µM) | 140 | 35 | 100 | 86.1 | 71 | 29.4
24 | CN(C)S(=O)(=O)c1ccc2c(c1)/C(=C/c1cc3c([nH]1)CCCC3)C(=O)N2 + O=S(=O)(c1ccccc1)N(CC(F)(F)F)c1ccc(C(O)(C(F)(F)F)C(F)(F)F)cc1 [T0901317] (first compound 0.4 µM, partner dose 1.4 µM) | 29.4 | 38.4 | 138 | 41.6 | 85.9 | 36.7
25 | N#Cc1c(O)c2c(-c3ccc(-c4ccccc4O)cc3)csc2[nH]c1=O + c1cc(-c2cnn3cc(-c4ccc(OCCN5CCCCC5)cc4)cnc23)ccn1 [Dorsomorphin] (first compound 2 µM, partner dose 0.4 µM) | 180 | 132 | 103 | 266 | 84.6 | 114
26 | Oc1cc(-c2nc(-c3ccccc3)[nH]c2-c2ccncc2)ccc1Cl + Oc1nc(-c2ccc(C(F)(F)F)cc2)nc2c1CSCC2 [XAV939] (first compound 0.2 µM, partner dose 2 µM) | 237 | 392 | 147 | 91.2 | 89.2 | 25
27 | COc1cc2ncnc(Nc3ccc(Oc4ccccc4)cc3)c2cc1OC + c1cc(-c2cnn3cc(-c4ccc(OCCN5CCCCC5)cc4)cnc23)ccn1 [Dorsomorphin] (first compound 2 µM, partner dose 0.4 µM) | 150 | 122 | 119 | 75.4 | 84.4 | 57

In another format: results already given
Row	Compound	cleaved PARP positive nuclei fraction (WM115) [%]	cleaved PARP positive nuclei fraction (WM1716) [%]	cleaved PARP positive nuclei fraction (WM1745) [%]	cleaved PARP positive nuclei fraction (WM3526) [%]	cleaved PARP positive nuclei fraction (WM3619) [%]	cleaved PARP positive nuclei fraction (WM451Lu) [%]
8	CN(NC(=O)CC(=O)NN(C)C(=S)c1ccccc1)C(=S)c1ccccc1 + COc1cc(N2CCC(N3CCN(C)CC3)CC2)ccc1Nc1ncc(Cl)c(Nc2ccccc2S(=O)(=O)C(C)C)n1 [NVP-TAE684] (first compound 0.006 µM, partner dose 0.08 µM)	177	135	194	66.8	128	146
18	COc1ccc2c(c1)CCC1C2CCC2(C)C(NCCCCCCN3C(=O)C=CC3=O)CCC12 (configuration not stated) + CCN(CC)CCCCNc1ncc2cc(-c3cc(OC)cc(OC)c3)c(NC(=O)NC(C)(C)C)nc2n1 [PD173074] (first compound 0.4 µM, partner dose 0.1 µM)	71.6	63.3	121	73.6	83.2	60.4
